# Some of the results follow.
# Target: T1, OsSMF1 (Oryza sativa, UniProt Q6ZLB0 1-436)
# T1 sequence: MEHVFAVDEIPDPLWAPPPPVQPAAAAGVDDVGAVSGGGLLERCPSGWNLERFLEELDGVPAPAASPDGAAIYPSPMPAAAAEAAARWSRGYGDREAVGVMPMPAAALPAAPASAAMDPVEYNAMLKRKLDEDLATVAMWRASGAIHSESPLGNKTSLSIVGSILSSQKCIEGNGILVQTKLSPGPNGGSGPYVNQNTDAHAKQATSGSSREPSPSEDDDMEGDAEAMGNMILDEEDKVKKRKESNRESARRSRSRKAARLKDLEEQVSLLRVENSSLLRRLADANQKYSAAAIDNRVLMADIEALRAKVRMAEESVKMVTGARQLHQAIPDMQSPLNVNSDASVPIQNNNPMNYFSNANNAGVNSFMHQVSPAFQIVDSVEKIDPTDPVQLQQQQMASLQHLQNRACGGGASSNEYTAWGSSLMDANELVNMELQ
# Assay: protein-binding microarray (RPBM); PBS, 2% BSA, 51.3 ng/ul salmon testes DNA, 50 uM zinc acetate, 200 nM TF, 25 C, 1 h; high values mean tight binding
# Conditions: protein: recombinant; tags: N-terminal polyhistidine and DsRed monomer fusion (pET32a); chain copies: 2; label: CyDye5-dUTP incorporated in the synthesized complementary strand; 3' TTTTT single-stranded linker to array surface; dsDNA, one strand shown
# Summary of the method: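 Transcription factors were each fused at the N-terminus to a polyhistidine tag plus DsRed and expressed in E. coli BL21-CodonPlus before Ni–NTA purification. Binding to a double-stranded custom Agilent array was carried out with 200 nM protein at 25 °C for 1 h in PBS, 2% BSA, salmon testes DNA and 50 µM zinc acetate. The binding signal is per-feature fluorescence intensity, in arbitrary units, on an Axon 4000B scanner.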
row,Sequence,binding signal
1,CGCTTTGTTCATGGATGCCACGTGTCAACGCCTGATTCGACGGAGTCACCTAGTGCAG,23500 fluorescence intensity (a.u.)
2,ACTCATATCACATGCCTGAAATTCTTGGAAGGCTATCTGACGGAGTCACCTAGTGCAG,23100 fluorescence intensity (a.u.)
3,AGCACCACACTTGTACCTTACATGGCTCATGTGTAATTGACGGAGTCACCTAGTGCAG,4270 fluorescence intensity (a.u.)
4,GCAAAATACATAATGAAGTGTGATGACGATACATTTGTTACGGAGTCACCTAGTGCAG,3160 fluorescence intensity (a.u.)
5,GCACTGGAATGCCGCCGCCGTGCCCGCCGCGTGGTCTTGCCGGAGTCACCTAGTGCAG,3190 fluorescence intensity (a.u.)
6,ACATGCATGCTTCACACTGCCACCTAGATTAATTACTTCCCGGAGTCACCTAGTGCAG,5030 fluorescence intensity (a.u.)
7,CCTATTCCTTGTCACTATGACACCGTCATATATCTATGCACGGAGTCACCTAGTGCAG,3420 fluorescence intensity (a.u.)
8,GCGGCAAGGCGACGCTCCCAGGCGGTGGCACGTCAGTTCCCGGAGTCACCTAGTGCAG,3940 fluorescence intensity (a.u.)
9,GGTAACGAAGGTTGAGGTCGACCTCGAGCATGTCCCAAGCCGGAGTCACCTAGTGCAG,28700 fluorescence intensity (a.u.)
10,CACTCCGTCACAGTTCACAGCCTCAGAGGCCCAGATCACACGGAGTCACCTAGTGCAG,33900 fluorescence intensity (a.u.)
11,ACAGGAATATCTCTTCGAGGGATTAAAATTCACTCCCACTCGGAGTCACCTAGTGCAG,50800 fluorescence intensity (a.u.)
12,TTGATGGGATATGTCGGGCTGCACGTCGCCTGACACACGCCGGAGTCACCTAGTGCAG,3310 fluorescence intensity (a.u.)
13,ACCATGATCCTGTCATGTTGGCCTTTCCACGTCCTTACAACGGAGTCACCTAGTGCAG,5820 fluorescence intensity (a.u.)
14,CCGTGCACGTGACTAGTGTACGTCAGCCTCACCAAGAACGCGGAGTCACCTAGTGCAG,5470 fluorescence intensity (a.u.)
15,TGATGCCGGATTGCCAATGGGGTTGGGTTGGTCTGAATGACGGAGTCACCTAGTGCAG,3460 fluorescence intensity (a.u.)
16,CCCACATGTCGGTCCAATTCTCCCTCCAGCCACTCCCGACCGGAGTCACCTAGTGCAG,3220 fluorescence intensity (a.u.)
17,AAAATCTTCCCAACAGTAGTGTGTCATCTCATCTCCCTCTCGGAGTCACCTAGTGCAG,4800 fluorescence intensity (a.u.)
18,GCGCCGCCACAGTTAGCCTATGGAGTCCCCGTGTGCGTGTCGGAGTCACCTAGTGCAG,5460 fluorescence intensity (a.u.)
19,TCTCTGCTTCTCGTTGTTCTTGGTTGGTTGTTGTTGTAGACGGAGTCACCTAGTGCAG,3440 fluorescence intensity (a.u.)
20,GCCCCTCATCTATAAATATATGGATTAAAATTTTAGGGATCGGAGTCACCTAGTGCAG,23600 fluorescence intensity (a.u.)
21,TGTACCATTCCATCCATGTTAGAGAATGAGCTCTGACATGCGGAGTCACCTAGTGCAG,3540 fluorescence intensity (a.u.)

# In another format: entries from further up.
row | Sequence | binding signal
13 | ACCATGATCCTGTCATGTTGGCCTTTCCACGTCCTTACAACGGAGTCACCTAGTGCAG | 5820 fluorescence intensity (a.u.)
14 | CCGTGCACGTGACTAGTGTACGTCAGCCTCACCAAGAACGCGGAGTCACCTAGTGCAG | 5470 fluorescence intensity (a.u.)

# Later entries:

row,Sequence,binding signal
1,CTTATGAAATTTACTCCAAGTCACCAAGTGTAGCCCCACACGGAGTCACCTAGTGCAG,5240 fluorescence intensity (a.u.)
2,CCTTCCTACGTGGCCTCCGGCCCCACCTCCCGCCCGTTGCCGGAGTCACCTAGTGCAG,13400 fluorescence intensity (a.u.)
3,TGATGAAACACACGTGCATGCACCGGTCACTTTGATCGAGCGGAGTCACCTAGTGCAG,3900 fluorescence intensity (a.u.)
4,GCCAACGAGGTCGCGTTCGACAAGGTGAAGGACGCCGGCGCGGAGTCACCTAGTGCAG,39600 fluorescence intensity (a.u.)
5,AAGAGAAGAGAACGGCGGTAGAGAGGAGGGAGGTGGCGGCCGGAGTCACCTAGTGCAG,3450 fluorescence intensity (a.u.)
6,GCATCAAGTGAACAGGCCCTTTGTGTTGTACAGATCCTTCCGGAGTCACCTAGTGCAG,12900 fluorescence intensity (a.u.)
7,TTGTGGATTCTCTGATGTAAACGAACAAACTATCTGTTTCCGGAGTCACCTAGTGCAG,3190 fluorescence intensity (a.u.)
8,TTTCGGTTCATGTGCCACGATTGATCTACTCGATTGATATCGGAGTCACCTAGTGCAG,3180 fluorescence intensity (a.u.)
9,TTTTCTACTGTTAAATGGCGCTTAGAGATGATGAGGCAAACGGAGTCACCTAGTGCAG,3160 fluorescence intensity (a.u.)
10,TTATGCAGCGCACCAGCGTCAATATGTGCAGTGTGCGACGCGGAGTCACCTAGTGCAG,3440 fluorescence intensity (a.u.)
11,GAGGAGGGGATTGGGTGCTTGGAAAGCATGGCGCGGCAGTCGGAGTCACCTAGTGCAG,4440 fluorescence intensity (a.u.)
12,ATTCAGTCTTACCCCTATTAAATGTGCATGACACACCAGTCGGAGTCACCTAGTGCAG,4940 fluorescence intensity (a.u.)
13,GAGGCCGGCGAGAAGGGTGCTCGCCACGCTGTCCCCATTTCGGAGTCACCTAGTGCAG,3810 fluorescence intensity (a.u.)
14,GCGGCTGCGACCTCCCGCTGCCGTGTCGGTCGCTCGGCCTCGGAGTCACCTAGTGCAG,4020 fluorescence intensity (a.u.)
15,ACTTGGACCCGCTCTCTCATCTCTTTTCTCTCCATCCCCGCGGAGTCACCTAGTGCAG,5820 fluorescence intensity (a.u.)
16,GGCCCAATGACACAAACGAAACCTCCTGAGCTCTGACTTTCGGAGTCACCTAGTGCAG,38200 fluorescence intensity (a.u.)
17,CATTAAATATTTGGACACATCACACATGTATGGAGCGTTACGGAGTCACCTAGTGCAG,4010 fluorescence intensity (a.u.)
18,TCAAGTAAATGACATCACTAAACATGATATCATGCTCGCTCGGAGTCACCTAGTGCAG,5070 fluorescence intensity (a.u.)
19,CCCCTATTTTGTTACCTCATTATTCTCGTATTCCCCTTTTCGGAGTCACCTAGTGCAG,3280 fluorescence intensity (a.u.)
20,CGGGGCAGTGACCACCACCACCACATCACCCACCGCATTCCGGAGTCACCTAGTGCAG,6350 fluorescence intensity (a.u.)
21,ATGCACACTGTTCTCTGCCACGCGGCGGCGGTGTGGGACCCGGAGTCACCTAGTGCAG,11600 fluorescence intensity (a.u.)
